The values below come from paper PMC10543311.

The chains behind the UniProt entries cited, without tags or fusion partners.
UniProt Q01844: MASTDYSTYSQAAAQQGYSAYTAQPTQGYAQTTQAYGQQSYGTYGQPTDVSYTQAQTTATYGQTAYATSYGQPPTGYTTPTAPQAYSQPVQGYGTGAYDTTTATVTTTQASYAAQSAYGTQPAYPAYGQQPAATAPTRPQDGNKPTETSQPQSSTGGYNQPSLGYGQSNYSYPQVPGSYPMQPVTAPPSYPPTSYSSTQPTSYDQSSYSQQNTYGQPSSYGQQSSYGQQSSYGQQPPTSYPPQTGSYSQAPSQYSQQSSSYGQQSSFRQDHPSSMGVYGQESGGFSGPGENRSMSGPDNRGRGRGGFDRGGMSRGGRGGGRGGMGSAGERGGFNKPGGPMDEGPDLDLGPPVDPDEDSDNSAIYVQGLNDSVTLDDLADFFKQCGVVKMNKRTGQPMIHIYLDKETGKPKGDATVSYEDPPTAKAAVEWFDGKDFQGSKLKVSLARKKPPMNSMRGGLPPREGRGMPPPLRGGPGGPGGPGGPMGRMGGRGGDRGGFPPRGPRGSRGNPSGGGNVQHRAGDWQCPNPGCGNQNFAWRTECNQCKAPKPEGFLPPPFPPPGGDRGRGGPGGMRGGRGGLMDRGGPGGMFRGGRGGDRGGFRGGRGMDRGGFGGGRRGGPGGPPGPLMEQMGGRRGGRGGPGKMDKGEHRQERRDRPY

No constants are given. Whether binding was seen depends on the method and setting. Some results given as binding are weak or reduced against the parent protein; the word gives no strength.

Assay [1] deals with EWSR1-SNAP (Ewing Sarcoma breakpoint region 1/EWS RNA binding protein 1, SNAP-tagged) (UniProt Q01844). The assay can be described thus: dynamic light scattering (DLS); derived count rate and size distributions in sub-saturated solutions; 20 mM Tris.Glu pH 7.4, 100 mM KGlu (with residual KCl from the stock), 25 °C; self-association into clusters; both purified.
Assay [2] has the same target. The assay can be described thus: dynamic light scattering (DLS); derived count rate in sub-saturated solutions; 20 mM Tris.HCl pH 7.4, 100 mM KCl, 25 °C; self-association into clusters; both purified.

For “EWSR1-SNAP (Ewing Sarcoma breakpoint region 1/EWS RNA binding protein 1, SNAP-tagged) (from UniProt Q01844 1-656)”, the binding entry in assay [1] and in assay [2] was “binds” in each case.
